Measured values as given in article PMC3531308.
These are yes or no findings as the source states them, for the method shown. Binding seen in cells or lysates may run through a third protein. Sequences can lack the tags named with a protein.

Target: APH-2ΔbZIP-His (HTLV-2)
Experiment: co-IP; 293T cells transiently co-transfected with two tagged proteins; nuclear (in places called cellular) extracts 48 h after transfection, 400 ug; IP with 5 ug anti-FLAG, anti-Myc or anti-6xHis overnight at 4°C, Protein A/G beads; washes with 120 mM and 400 mM NaCl, 0.5% NP-40; Western blot

B1: FLAG-JunD (protein, UniProt P17535 1-347)
chain: METPFYGDEALSGLGGGASGSGGSFASPGRLFPGAPPTAAAGSMMKKDALTLSLSEQVAAALKPAAAPPPTPLRADGAPSAAPPDGLLASPDLGLLKLASPELERLIIQSNGLVTTTPTSSQFLYPKVAASEEQEFAEGFVKALEDLHKQNQLGAGAAAAAAAAAAGGPSGTATGSAPPGELAPAAAAPEAPVYANLSSYAGGAGGAGGAATVAFAAEPVPFPPPPPPGALGPPRLAALKDEPQTVPDVPSFGESPPLSPIDMDTQERIKAERKRLRNRIAASKCRKRKLERISRLEEKVKTLKSQNTELASTASLLREQVAQLKQKVLSHVNSGCQLLPQHQVPAY
  binding: no binding

B2: FLAG-JunB (protein, UniProt P17275 1-347)
chain: MCTKMEQPFYHDDSYTATGYGRAPGGLSLHDYKLLKPSLAVNLADPYRSLKAPGARGPGPEGGGGGSYFSGQGSDTGASLKLASSELERLIVPNSNGVITTTPTPPGQYFYPRGGGSGGGAGGAGGGVTEEQEGFADGFVKALDDLHKMNHVTPPNVSLGATGGPPAGPGGVYAGPEPPPVYTNLSSYSPASASSGGAGAAVGTGSSYPTTTISYLPHAPPFAGGHPAQLGLGRGASTFKEEPQTVPEARSRDATPPVSPINMEDQERIKVERKRLRNRLAATKCRKRKLERIARLEDKVKTLKAENAGLSSTAGLLREQVAQLKQKVMTHVSNGCQLLLGVKGHAF
  binding: no binding
